For at least one compound, name, drawing or mass did not settle the structure.
Tested on: Vibrio campbellii LMG21363
Test: Growth of Vibrio campbellii LMG21363 in LB medium (OD600)
Format: cell-based
Experimental: Vibrio campbellii LMG21363 was grown overnight in LB medium on a shaker at 28° C. Subsequently, the suspension was diluted 1:50 (v/v) in LB medium supplemented with butyrate (Sigma-Aldrich, Bornem, Belgium) or β-hydroxybutyrate (Sigma-Aldrich, Bornem, Belgium). For each compound, three solutions were made with the following concentrations: 25, 50 and 100 mM. LB medium without supplements was used as a control. The pH of all solutions was set at 6, 7 or 8. After inoculation, the suspensions were incubated at 28° C. in a static mode. Growth was monitored by measuring the optical density (OD600) during 20 h. Each treatment was performed in triplicate.

Which “Growth of Vibrio campbellii” value (pH 6, lowest concentration tested) does the source give for `CCCC(=O)O` [butyrate] here?
Its value is “completely inhibited”.

What about the “Growth of Vibrio campbellii” value (pH 7, highest concentration) of the same compound?
The value was “inhibited”.

Source: patent US8603518B2, “Hydroxybutyrate and poly-hydroxybutyrate as components of animal feed or feed additives” (Universiteit Gent, priority 2006, dated 2013)
